Reference: PMC13172425
Results are given in words; binding and its absence hold for the method and conditions named. Binding seen in cells or lysates may run through a third protein. Some binding calls cover weakened binding; strength is not graded here. Sequences can lack the tags named with a protein.

Assays:
[1] = target: FOXK2 with a C-terminal Flag tag, Q01167; test: co-IP; FOXK2-Flag captured on anti-FLAG gel (FLAG Immunoprecipitation Kit) from 0.7 mg lysate of transfected HEK-293 cells, overnight at 4 °C; basal (standard) lysis and wash; blots with anti-Myc, anti-FLAG, anti-KAT8, anti-Naa50; settings: remark: other sources report otherwise
[2] = target: FOXK2 with a C-terminal Flag tag, Q01167; test: co-IP; as the basal co-IP, but cells sonicated in high salt buffer and first wash with 1 mL high salt buffer, 2nd and 3rd wash with 50 mM HEPES pH 7.5, 150 mM NaCl; settings: remark: other sources report otherwise

binding [1]: binds
binding [2]: binds
B1: OGT with an N-terminal Myc tag, O15294 1-1046 (enzyme)
chain: MASSVGNVADSTEPTKRMLSFQGLAELAHREYQAGDFEAAERHCMQLWRQEPDNTGVLLLLSSIHFQCRRLDRSAHFSTLAIKQNPLLAEAYSNLGNVYKERGQLQEAIEHYRHALRLKPDFIDGYINLAAALVAAGDMEGAVQAYVSALQYNPDLYCVRSDLGNLLKALGRLEEAKACYLKAIETQPNFAVAWSNLGCVFNAQGEIWLAIHHFEKAVTLDPNFLDAYINLGNVLKEARIFDRAVAAYLRALSLSPNHAVVHGNLACVYYEQGLIDLAIDTYRRAIELQPHFPDAYCNLANALKEKGSVAEAEDCYNTALRLCPTHADSLNNLANIKREQGNIEEAVRLYRKALEVFPEFAAAHSNLASVLQQQGKLQEALMHYKEAIRISPTFADAYSNMGNTLKEMQDVQGALQCYTRAIQINPAFADAHSNLASIHKDSGNIPEAIASYRTALKLKPDFPDAYCNLAHCLQIVCDWTDYDERMKKLVSIVADQLEKNRLPSVHPHHSMLYPLSHGFRKAIAERHGNLCLDKINVLHKPPYEHPKDLKLSDGRLRVGYVSSDFGNHPTSHLMQSIPGMHNPDKFEVFCYALSPDDGTNFRVKVMAEANHFIDLSQIPCNGKAADRIHQDGIHILVNMNGYTKGARNELFALRPAPIQAMWLGYPGTSGALFMDYIITDQETSPAEVAEQYSEKLAYMPHTFFIGDHANMFPHLKKKAVIDFKSNGHIYDNRIVLNGIDLKAFLDSLPDVKIVKMKCPDGGDNADSSNTALNMPVIPMNTIAEAVIEMINRGQIQITINGFSISNGLATTQINNKAATGEEVPRTIIVTTRSQYGLPEDAIVYCNFNQLYKIDPSTLQMWANILKRVPNSVLWLLRFPAVGEPNIQQYAQNMGLPQNRIIFSPVAPKEEHVRRGQLADVCLDTPLCNGHTTGMDVLWAGTPMVTMPGETLASRVAASQLTCLGCLELIAKNRQEYEDIAVKLGTDLEYLKKVRGKVWKQRISSPLFNTKQYTMELERLYLQMWEHYAAGNKPDHMIKPVEVTESA
